Reference: publication PMC4224335
No constants are given. Whether binding was seen depends on the method and setting. Some entries that bind do so weakly or less than the wild type.

Sequences of proteins named here, by UniProt entry; tags and fusion partners are left off. A change or cut given only in a name is not applied to a line headed by its entry.
UniProt O95298: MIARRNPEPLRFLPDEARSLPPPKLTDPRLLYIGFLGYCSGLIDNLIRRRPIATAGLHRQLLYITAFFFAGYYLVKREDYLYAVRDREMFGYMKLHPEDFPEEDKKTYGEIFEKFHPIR
UniProt P03905: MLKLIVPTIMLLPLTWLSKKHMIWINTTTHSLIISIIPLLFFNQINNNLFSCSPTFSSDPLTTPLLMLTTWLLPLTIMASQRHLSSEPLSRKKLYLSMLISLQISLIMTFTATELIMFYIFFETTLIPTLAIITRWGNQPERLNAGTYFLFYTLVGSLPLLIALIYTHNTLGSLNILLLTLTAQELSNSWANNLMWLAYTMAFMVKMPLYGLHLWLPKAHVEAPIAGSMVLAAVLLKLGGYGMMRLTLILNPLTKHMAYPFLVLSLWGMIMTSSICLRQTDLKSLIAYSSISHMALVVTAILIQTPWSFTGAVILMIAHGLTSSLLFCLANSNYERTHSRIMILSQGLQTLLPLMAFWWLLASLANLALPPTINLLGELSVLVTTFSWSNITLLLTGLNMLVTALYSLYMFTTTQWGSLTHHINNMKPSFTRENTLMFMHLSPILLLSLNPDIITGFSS

How the values were obtained:
Experiment in all cases: two-hybrid; semiquantitative: generation time of cotransformed PJ yeast in liquid SC-Leu-Trp-His; pAD–NDUFC2 (WT or mutants) called bait, pBD–ND4 called prey; average of at least four independent experiments
[1] = molecular target: NDUFC2-V (valine at position 46, second human allele), pAD fusion (human) (UniProt O95298)
[2] = molecular target: NDUFC2-L (wild type, leucine at position 46), pAD fusion (human) (UniProt O95298)
[3] = molecular target: NDUFC2-A (alanine at position 46), pAD fusion (human) (UniProt O95298)

Measured: binding

mtDNA-encoded complex I subunit ND4 (recoded to the cytoplasmic genetic code), pBD fusion (from UniProt P03905 1-459)
binds: all assays above
